Measurements reported in patent US20220117973A1, “THE ATR KINASE INHIBITOR BAY1895344 FOR USE IN THE TREATMENT OF A HYPER-PROLIFERATIVE DISEASE” (Bayer Aktiengesellschaft, priority 2019, published 2022).
Read-outs that look alike come from different tables or passages of the source.

Key:
[1] = tested on: patients with advanced solid tumors; details: for dose-limiting toxicities (DLTs), patients with DLT/cohort: G4 neutropenia
[2] = 5-80 mg BID cohorts
[3] = tested on: pH2AX and/or pKAP1; details: at exposures associated with preclinical anti-tumor activity

C[C@@H]1COCCN1c1cc(-c2ccnn2C)c2ccnc(-c3ccn[nH]3)c2n1 [BAY 1895344, 2-[(3R)-3-methylmorpholin-4-yl]-4-(1-methyl-1H-pyrazol-5-yl)-8-(1H-pyrazol-5-yl)-1,7-naphthyridine]
dose limiting toxicity (DLT) ([1]; 60 mg BID and 80 mg BID, 3 days on/11 days off): no DLTs
dose-limiting toxicities (DLTs), patients with DLT/cohort ([1]; 60 mg cohort, BID, 3 days on/4 days off, G2 fatigue): 2/7
dose-limiting toxicities (DLTs), patients with DLT/cohort ([1]; 80 mg cohort, BID, 3 days on/4 days off, G4 neutropenia and G4 thrombocytopenia): 2/3
maximum tolerated dose (MTD) ([1]; 3 on/4 off schedule): 40 mg BID
dose-limiting toxicities (DLTs) ([1]; 5-40 mg cohorts, BID, 3 days on/4 days off): No dose-limiting toxicities (DLTs) were reported
most common treatment emergent adverse events ([1]; 5-80 mg BID, 3 days on/4 days off): anemia, neutropenia, nausea and fatigue
pharmacokinetics, dose dependence [2]: dose-proportional
pharmacodynamic modulation in paired tumor biopsies [3]: modulation of pH2AX and/or pKAP1
